Primary screen of a compound library

Mtb growth Cornell: 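Whole-cell assay for inhibitors of Mycobacterium tuberculosis growth, labelled Cornell in the record; the read-out is not stated. The concentration is filed as 10 mM, unlikely as a test dose, so the dose is not known. The record gives no direction; compounds strong in two other growth screens of this library score well above the rest, so higher reads as stronger inhibition. About 53,000 compounds were tested under these conditions; 1.7% (about 900) showed 50% or more at least once.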
Mtb heat-shock: 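Assay on Mycobacterium tuberculosis, filed only as a heat shock assay from Cornell; the read-out is not stated. The concentration is filed as 10 mM, unlikely as a test dose, so the dose is not known. Higher reads as stronger inhibition (inferred: compounds with an IC50 in retests scored well above the rest). About 69,000 compounds were tested under these conditions; 1.4% (about 930) showed 50% or more at least once.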

The filed quantity is “Percent Effect” (%). The controls that fix the scale are not given in the record; negative values are as filed. Compounds were drawn at random from those tested, without regard to their results. A dash means the value is not listed here; it may have been measured.

| # | structure | Mtb growth Cornell | Mtb heat-shock |
|---|---|---|---|
| 1 | `CCCC(C#N)NC(=O)c1sccc1CC` (stereo not shown) | 14.14 | 1.709 |
| 2 | `[H][C@@]12CCCC[C@@]1([H])CN(Cc1nc(Cc3ccccc3F)no1)CC2` | 17.1 | 4.074 |
| 3 | `O=C(O)C(F)(F)F.[H][C@@]12COC[C@]1(CNC(=O)C1CC1)CN(Cc1cccc(OC)c1)C2` | -2.015 | 18.07 |
| 4 | `COc1ccc(CN2CCSCC2)c(OC)c1` | 8.621 | -7.194 |
| 5 | `O=C(C1CCCCC1)N1CCC2(COc3ncccc3S(=O)(=O)N2)C1` (stereo not shown) | - | -11.06 |
| 6 | `O=C(O)C(F)(F)F.O=C(O)C(F)(F)F.[H][C@@]12CC(COc3ccccn3)C[C@@]1([H])N(Cc1ccoc1)CCO2` (stereo partly shown) | -0.7929 | 14.26 |
| 7 | `CC(NC(=O)c1cccc(CN2CCN(C)CC2)c1)c1nccs1` (stereo not shown) | 4.037 | -4.136 |
| 8 | `COCCN(Cc1nccs1)c1nc2c(s1)c(C)nn2C` | - | 9.001 |
| 9 | `CC1=NOC(C(=O)N2CCC(O)(c3ccc4nc(C)ccc4c3)CC2)C1` (stereo not shown) | -34.51 | 0.9013 |
| 10 | `Cc1cc(C)c(CNCC(O)c2ccc(F)c(F)c2)c(C)c1.Cl` (stereo not shown) | 4.021 | 13.87 |
| 11 | `Cc1cccc(NC(=O)[C@@H]2CCCN2CC(=O)Nc2ccccc2)n1` | -6.046 | -29.13 |
| 12 | `COc1cc(C)nc(N2CCN(C(=O)COCC3CC3)CC2)n1` | - | 14.25 |
| 13 | `Cc1nc(Cn2c3c(ccc2=O)CC(NC(N)=O)CC3)cs1` (stereo not shown) | -11.16 | 43.9 |
| 14 | `Cl.Cn1nc(C2CCCN(Cc3ccc(F)c(F)c3)C2)c2nccnc21` (stereo not shown) | -20.54 | -15.39 |
| 15 | `Cc1ncsc1C(=O)N1CCCN(Cc2cscn2)CC1` | - | -7.125 |
| 16 | `O=C(NC1CCN(c2ncccc2F)C1)c1cccc(-n2ccnc2)c1` (stereo not shown) | - | -6.837 |
| 17 | `Cc1cc(C)c(S(=O)(=O)Nc2c(C)nc(N(C)C)nc2C)cc1C` | -4.253 | -7.07 |
| 18 | `O=c1[nH]c(N2CCCCC2)nc2c1CCN(Cc1cccnc1)C2` | 24.02 | -9.833 |
| 19 | `CC(C)(N)C(=O)N1CCCC1c1cncc(Oc2ccc(F)cc2)n1` (stereo not shown) | - | -1.899 |
| 20 | `CCC(CO)N(Cc1cccc(O)c1)Cc1ccccc1C` (stereo not shown) | 14.05 | -19.64 |
| 21 | `COc1ccccc1C1=NOC(CC2(C(=O)O)CCOCC2)C1` (stereo not shown) | -51.43 | -19.24 |
| 22 | `CC(=O)N1CCC(NC(=O)c2ccc3c(c2O)OC(C)(C)C3)CC1` | 0.7081 | 17.38 |
| 23 | `COc1c(CNC2CCc3cc(C)ccc32)c(C)nn1C` (stereo not shown) | - | -3.271 |
| 24 | `Cc1csc2ncc(-c3ccnc(N4CCN(C)CC4)n3)c(=O)n12` | - | -18.67 |
| 25 | `COc1cccc(CC(=O)N2CCCC2c2nc(C)c(F)c(O)n2)c1` (stereo not shown) | -107.1 | -1.596 |
| 26 | `O=c1nc(SCc2cccnc2)c2c(n1CCO)CCCC2` | -0.8515 | -28.94 |
| 27 | `COCCCSc1ccc(NCc2ccc(C)cn2)cc1` | 35.61 | 14.33 |
| 28 | `CNc1nc(C)cc(NC2CCCN(C3Cc4ccccc4C3)C2)n1` (stereo not shown) | 12.8 | -21.39 |
| 29 | `Cc1cc(C)cc(-c2ccc(CC3(C(=O)O)CCOCC3)cc2)c1` | 17.7 | -16.62 |
| 30 | `COc1c(C(=O)NCc2cnn(C)c2C)nnn1Cc1ccccc1` | - | -20.18 |
| 31 | `O=C(NCc1ccc2c(c1)CCCO2)C1CNCCO1` (stereo not shown) | -1.522 | -21.95 |
| 32 | `O=C(O)C(F)(F)F.O=S(=O)(C1CC1)N1CCOCC2(CCN(c3ccccn3)C2)C1` (stereo not shown) | - | -12.41 |
| 33 | `Cc1nc(CCC(N)=O)cc(C2CCNCC2)n1` | -41.01 | 20.87 |
| 34 | `O=S(=O)(Cc1ccccc1)NCc1nnc2n1CCC2` | 15.02 | 19.32 |
| 35 | `COc1cccc(-c2cc(NCc3cscn3)n(C)n2)c1` | -5.65 | 1.795 |
| 36 | `C[C@@H]1CN(Cc2cccc(F)c2)C[C@]12CCN(Cc1cccnc1)C2=O.O=C(O)C(F)(F)F.O=C(O)C(F)(F)F` | 6.081 | -2.793 |
| 37 | `Cc1cnn(CC2CN(Cc3nccn3CC(F)(F)F)CCO2)c1` (stereo not shown) | -26.57 | -15.97 |
| 38 | `O=S1(=O)NC(C2CCN(Cc3ccncc3)CC2)Nc2ccccc21` (stereo not shown) | -0.3128 | -25.57 |
| 39 | `O=C(CCN1CCCC1=O)NCc1cccnc1Oc1ccccc1` | 17.81 | 14.87 |
| 40 | `NC(=O)c1ccc(CNCC2CCN(CCO)CC2)cc1` | 7.734 | -41.37 |
| 41 | `N[C@@H]1c2ccccc2C2(CCN(C(=O)c3ccc(CO)o3)CC2)[C@H]1O` | -5.512 | -3.036 |
| 42 | `CCC[C@@H]1CN(c2ncnc3sccc23)C[C@H]1NS(C)(=O)=O` | 3.426 | 4.028 |
| 43 | `Cc1cc(-c2nc(-c3ccccn3)nn2C2CCN(C)CC2)nc(C)n1` | 25.87 | 7.243 |
| 44 | `COc1ccc(C(=O)C2CCCN(c3cc(OC)ncn3)C2)c(C)c1` (stereo not shown) | 22.72 | -4.769 |
| 45 | `COCC1CN(S(=O)(=O)c2cccc(F)c2)Cc2nccn2C1` (stereo not shown) | 7.68 | -6.201 |
| 46 | `Cc1cc(C2CCCN(CC(=O)N3CCCc4ccccc43)C2)n[nH]1` (stereo not shown) | -14.16 | -30.42 |
| 47 | `O=c1oc(-c2cccs2)nn1CC(O)c1ccc2c(c1)CCC2` (stereo not shown) | -20.79 | -20.82 |
| 48 | `O=C(O)c1cc(NS(=O)(=O)c2ccc(Br)s2)c(F)cc1F` | - | -7.145 |
| 49 | `CCc1cnc(CN(C)C2CCN(CC3CCC3)C2)o1` (stereo not shown) | 22.68 | 4.662 |
| 50 | `Cc1noc(CN2CCCC(Cn3nc(C)nc3C)C2)n1` (stereo not shown) | -61.08 | -22.17 |
| 51 | `O=C(C1CCN(Cc2nc(-c3ccco3)no2)CC1)N1CCCC1` | -8.324 | -4.359 |
| 52 | `CCc1nnc2ccc(N3CCN(S(=O)(=O)c4ccc(Cl)s4)CC3)nn12` | 4.544 | -6.287 |
| 53 | `c1cnc(-c2nc(CN3CCCN(Cc4cccs4)CC3)cs2)nc1` | - | 23.69 |
| 54 | `CN(C)[C@@H]1CCN(CC2CC2)[C@H]1Cc1cnn(C)c1.O=C(O)C(F)(F)F.O=C(O)C(F)(F)F` | 12.03 | 8.423 |
| 55 | `Cc1cnn(CC2CCCCN2C(=O)Cc2c(C)noc2C)c1` (stereo not shown) | - | -20.08 |
| 56 | `Cc1nc(CN2CCCC3(CCN(c4cccnc4)C3=O)C2)cs1.O=C(O)C(F)(F)F.O=C(O)C(F)(F)F` (stereo not shown) | 0.1457 | -27.31 |
| 57 | `CCOC(=O)c1sc(NC(=O)COC)c(C#N)c1C` | -37.34 | -3.741 |
| 58 | `OC(COCc1cccs1)CSc1nnc2ccccn12` (stereo not shown) | -17.08 | -12.58 |
| 59 | `Cc1nn(C)c2ncc(S(=O)(=O)N3CCCC(C)CC3)cc12` (stereo not shown) | 18.27 | -13.27 |
| 60 | `Cc1ccccc1C(=O)NCCCN1CCc2ccccc2C1` | -30.29 | -31.17 |
| 61 | `COc1cc(N2CCN(CC3CC3)c3nc(C)ccc3C2)ncn1` | 1.35 | 11.59 |
| 62 | `CC(C)C(NC(=O)C1CCCC1)c1cc(O)nc(-c2cccnc2)n1` (stereo not shown) | -15.41 | -18.74 |
| 63 | `O=C(NC1CCCN(CCc2ccccc2)C1)c1cnccn1` (stereo not shown) | 41.23 | 15.17 |
| 64 | `CCCN(Cc1cccnc1)C(=O)C1CCCN(C)C1` (stereo not shown) | -14.18 | -1.389 |
| 65 | `CCc1nc(N)nc(N2CCCC3(CCOCC3)C2)c1C` | 11.45 | -21.62 |
| 66 | `COCC1COCCC12CCN(C(=O)CCc1ccccc1C)CC2` (stereo not shown) | -18.06 | -7.376 |
| 67 | `c1ncn(CC2CCCCN2Cc2cn3ccsc3n2)n1` (stereo not shown) | - | -9.003 |
| 68 | `Cc1nnc(CN2CCCC2c2ccc3c(c2)OCCO3)n1C` (stereo not shown) | 17.84 | 12.6 |
| 69 | `CCOc1ccc(-c2ccnc(C)n2)cc1C(=O)O` | - | 5.599 |
| 70 | `CCN(CC)CCc1nc2c([nH]1)CC(c1ccc(Cl)cc1)CNC2=O` (stereo not shown) | 10.65 | -14.88 |
| 71 | `Cc1ccc(CNCc2cc(Br)c3c(c2)OCO3)cc1` | - | 11.68 |
| 72 | `COc1ccc(N2CCN(Cc3noc(CC(C)C)n3)C(C)C2=O)cc1` (stereo not shown) | 15.92 | 5.145 |
| 73 | `[H][C@]12CCC[C@@]1(COCC1CCOCC1)CN(C(=O)c1ocnc1C)C2` | 15.54 | -0.6336 |
| 74 | `CCC(=O)N1CCCC(c2nc(-c3cccnn3)no2)C1` (stereo not shown) | -14 | 8.765 |
| 75 | `CN1CCN(C(=O)c2cc3sccc3n2Cc2ccccc2)CC1` | 32.01 | -28.9 |
| 76 | `O=C(O)C(F)(F)F.[H][C@@]12COC[C@]1(CN(C)C)CN(C(=O)c1cc(C)c(C)s1)C2` | 21.99 | -0.3043 |
| 77 | `CC(C)CC(=O)N1CCC(Nc2nc(O)cc(-c3ccsc3)n2)CC1` | -19.28 | -17.44 |
| 78 | `O=C(CN1CCc2sccc2C1)Nc1nccs1` | -7.73 | 8.749 |
| 79 | `CCN1CCCC1CN(CCN(C)C)S(=O)(=O)c1ccccc1C#N` (stereo not shown) | -2.617 | -25.94 |
| 80 | `COc1cccc(N2CCN(C(=O)c3noc4c3CCCC4)CC2)c1` | 23.11 | 17.75 |

Measurements from “University of Dundee, Small-Polar-MMV Screening Library” (2021), ChEMBL document CHEMBL3988442.